No constants are given. Whether binding was seen depends on the method and setting. Binding seen in cells or lysates may run through a third protein. Some results given as binding are weak or reduced against the parent protein; the word gives no strength. Tags and fused reporters may be left off the sequences shown.

Protein sequences, listed by entry. Tags and fused reporters are not part of them. Lines headed by an entry give the natural chain unless they say otherwise; changes in a name come on top.
UniProt P38110: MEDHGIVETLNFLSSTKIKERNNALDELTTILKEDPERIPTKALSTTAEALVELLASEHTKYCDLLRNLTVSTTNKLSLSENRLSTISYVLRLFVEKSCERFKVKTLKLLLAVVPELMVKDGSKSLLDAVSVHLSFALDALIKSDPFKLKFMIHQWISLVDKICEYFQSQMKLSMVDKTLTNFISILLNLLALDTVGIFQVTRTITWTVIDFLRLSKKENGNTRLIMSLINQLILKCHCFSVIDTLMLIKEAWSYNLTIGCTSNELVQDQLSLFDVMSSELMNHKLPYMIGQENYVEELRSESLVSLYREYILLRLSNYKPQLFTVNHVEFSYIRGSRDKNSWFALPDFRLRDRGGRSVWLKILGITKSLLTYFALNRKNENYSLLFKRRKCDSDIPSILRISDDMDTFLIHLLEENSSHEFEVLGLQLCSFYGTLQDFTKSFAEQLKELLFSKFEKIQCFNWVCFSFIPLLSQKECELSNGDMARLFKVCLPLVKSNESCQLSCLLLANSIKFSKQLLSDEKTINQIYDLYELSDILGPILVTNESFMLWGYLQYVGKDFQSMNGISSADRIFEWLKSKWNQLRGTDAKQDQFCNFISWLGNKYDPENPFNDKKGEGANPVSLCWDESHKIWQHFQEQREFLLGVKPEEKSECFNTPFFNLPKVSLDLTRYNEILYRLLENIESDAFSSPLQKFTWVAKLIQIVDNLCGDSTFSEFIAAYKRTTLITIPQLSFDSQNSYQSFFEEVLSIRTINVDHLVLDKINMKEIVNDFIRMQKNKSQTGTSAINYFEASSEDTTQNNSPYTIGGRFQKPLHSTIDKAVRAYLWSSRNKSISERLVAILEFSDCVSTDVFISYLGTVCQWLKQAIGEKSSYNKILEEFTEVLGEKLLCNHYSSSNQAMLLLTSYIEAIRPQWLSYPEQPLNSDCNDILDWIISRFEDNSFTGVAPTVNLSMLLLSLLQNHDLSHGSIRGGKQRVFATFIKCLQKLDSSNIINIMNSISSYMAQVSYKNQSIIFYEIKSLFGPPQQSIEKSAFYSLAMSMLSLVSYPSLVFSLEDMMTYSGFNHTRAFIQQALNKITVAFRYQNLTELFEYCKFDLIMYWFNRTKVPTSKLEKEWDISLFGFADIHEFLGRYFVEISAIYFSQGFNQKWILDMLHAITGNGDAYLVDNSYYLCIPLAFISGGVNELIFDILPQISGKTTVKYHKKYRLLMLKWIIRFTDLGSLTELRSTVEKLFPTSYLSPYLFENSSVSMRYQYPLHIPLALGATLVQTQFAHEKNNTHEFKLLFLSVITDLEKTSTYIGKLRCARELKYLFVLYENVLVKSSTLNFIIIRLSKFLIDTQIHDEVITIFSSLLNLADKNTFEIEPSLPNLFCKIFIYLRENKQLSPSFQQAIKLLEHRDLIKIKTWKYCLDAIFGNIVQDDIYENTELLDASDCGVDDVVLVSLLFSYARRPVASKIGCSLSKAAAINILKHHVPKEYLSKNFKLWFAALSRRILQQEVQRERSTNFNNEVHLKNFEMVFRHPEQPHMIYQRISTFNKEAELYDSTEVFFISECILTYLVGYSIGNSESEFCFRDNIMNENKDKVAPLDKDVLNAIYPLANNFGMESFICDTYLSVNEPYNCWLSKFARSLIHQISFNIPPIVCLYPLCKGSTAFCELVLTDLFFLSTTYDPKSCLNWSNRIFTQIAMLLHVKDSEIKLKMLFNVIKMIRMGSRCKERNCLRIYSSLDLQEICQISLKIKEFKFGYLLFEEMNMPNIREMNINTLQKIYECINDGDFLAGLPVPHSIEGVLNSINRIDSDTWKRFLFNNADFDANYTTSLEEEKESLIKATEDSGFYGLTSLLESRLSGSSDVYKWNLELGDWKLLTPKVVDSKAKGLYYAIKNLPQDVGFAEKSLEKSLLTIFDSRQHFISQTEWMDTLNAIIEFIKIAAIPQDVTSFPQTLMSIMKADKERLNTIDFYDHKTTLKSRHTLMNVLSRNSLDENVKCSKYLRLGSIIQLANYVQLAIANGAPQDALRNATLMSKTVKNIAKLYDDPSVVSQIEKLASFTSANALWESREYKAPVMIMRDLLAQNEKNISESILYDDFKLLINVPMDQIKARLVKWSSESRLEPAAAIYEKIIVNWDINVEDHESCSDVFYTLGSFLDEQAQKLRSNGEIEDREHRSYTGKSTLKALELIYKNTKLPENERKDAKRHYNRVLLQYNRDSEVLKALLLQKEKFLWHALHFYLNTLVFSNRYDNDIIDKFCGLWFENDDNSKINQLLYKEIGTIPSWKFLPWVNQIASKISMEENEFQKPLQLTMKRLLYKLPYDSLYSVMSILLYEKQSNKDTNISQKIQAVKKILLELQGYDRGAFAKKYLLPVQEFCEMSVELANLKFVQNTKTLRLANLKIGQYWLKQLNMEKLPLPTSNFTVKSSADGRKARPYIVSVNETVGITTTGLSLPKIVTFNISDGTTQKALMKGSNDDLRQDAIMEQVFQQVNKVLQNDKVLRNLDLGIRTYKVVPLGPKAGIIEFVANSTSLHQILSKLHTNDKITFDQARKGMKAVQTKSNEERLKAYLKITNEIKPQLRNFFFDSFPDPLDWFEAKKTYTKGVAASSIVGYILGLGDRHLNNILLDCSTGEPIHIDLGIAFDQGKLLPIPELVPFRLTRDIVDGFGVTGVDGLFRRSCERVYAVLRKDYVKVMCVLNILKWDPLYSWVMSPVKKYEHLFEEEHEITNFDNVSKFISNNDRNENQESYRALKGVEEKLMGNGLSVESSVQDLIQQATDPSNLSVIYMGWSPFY

This assay deals with T1, GST-Xrs2 (full-length S. cerevisiae Xrs2) (S. cerevisiae) (UniProt P33301).
T1 sequence: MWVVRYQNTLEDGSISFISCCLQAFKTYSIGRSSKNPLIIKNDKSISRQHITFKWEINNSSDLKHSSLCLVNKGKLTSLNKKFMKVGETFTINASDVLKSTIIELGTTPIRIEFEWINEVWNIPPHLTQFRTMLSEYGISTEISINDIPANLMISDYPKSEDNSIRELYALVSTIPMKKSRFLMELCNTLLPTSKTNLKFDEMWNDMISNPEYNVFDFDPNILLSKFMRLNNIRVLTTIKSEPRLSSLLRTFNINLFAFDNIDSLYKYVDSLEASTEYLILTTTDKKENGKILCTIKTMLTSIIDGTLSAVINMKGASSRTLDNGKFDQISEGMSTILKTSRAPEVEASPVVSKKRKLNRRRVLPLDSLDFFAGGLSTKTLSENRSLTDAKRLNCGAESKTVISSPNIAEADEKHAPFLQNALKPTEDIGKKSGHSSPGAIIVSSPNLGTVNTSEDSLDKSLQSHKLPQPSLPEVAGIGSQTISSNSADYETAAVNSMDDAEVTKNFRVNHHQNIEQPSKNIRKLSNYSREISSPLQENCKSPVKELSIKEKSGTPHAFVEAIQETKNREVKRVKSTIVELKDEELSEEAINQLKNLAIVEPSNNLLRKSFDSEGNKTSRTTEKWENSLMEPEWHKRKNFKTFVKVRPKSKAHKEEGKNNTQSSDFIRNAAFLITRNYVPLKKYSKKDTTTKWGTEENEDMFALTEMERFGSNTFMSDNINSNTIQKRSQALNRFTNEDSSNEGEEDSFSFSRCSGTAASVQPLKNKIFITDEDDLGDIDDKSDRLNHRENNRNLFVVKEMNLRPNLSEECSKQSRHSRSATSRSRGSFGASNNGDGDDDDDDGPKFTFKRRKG
Kind of assay: pull-down; glutathione sepharose saturated with full-length GST-Xrs2 added to lysates of yeast expressing wild-type or mutant Tel1; 2 h at 4 °C, washed 3 times with lysis buffer; immunoblot with anti-PAP antibody; only the target purified.
For the substance “wild-type Tel1 (TAP-tagged) in yeast lysate (from UniProt P38110 1-2787) (enzyme)”, the binding entry is reported as “binds”. Next, “Tel1 F2636A (TAP-tagged) (from UniProt P38110 1-2787) (enzyme)”: “binds weakly”; “Tel1 K2751E (TAP-tagged) (from UniProt P38110 1-2787) (enzyme)”: “binds weakly”.

Source of the values: paper PMC6796912.
